Measurements reported in the supplement of paper PMC9233669.
Variants at the background level are over-represented here.

Columns and labels:
biotinyl-Ile-oxazolone = assay: self-aminoacylation, catalytic enhancement (BIO) (fold over background); higher = more active; k-Seq, kA / k0A0; sequences stand for … in GGGAAUGGAUCCACAUCUACGAAUUC…UUCACUGCAGACUUGACGAAGCUG
Outline: (§1)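 Catalytic enhancement equals the median kA over the uncatalyzed rate, the latter read from the low-activity peak of a bimodal Gaussian fit. Values of kA came from fitting each sequence's fraction reacted to a pseudo-first-order model, with 1000 bootstraps. Reacted RNA was captured with streptavidin and quantified by triplicate qPCR and Illumina sequencing after 90 minutes at room temperature with 2–1250 μM biotinyl-aminoacyl-oxazolone and 0.43 μM mutagenized RNA pools bearing a 21-nt variable region.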

biotinyl-Leu-oxazolone = assay: self-aminoacylation, catalytic enhancement (BLO) (fold over background); higher = more active; k-Seq, kA / k0A0; sequences stand for … in GGGAAUGGAUCCACAUCUACGAAUUC…UUCACUGCAGACUUGACGAAGCUG
Outline: as §1

biotinyl-Phe-oxazolone = assay: self-aminoacylation, catalytic enhancement (BFO) (fold over background); higher = more active; k-Seq, kA / k0A0; sequences stand for … in GGGAAUGGAUCCACAUCUACGAAUUC…UUCACUGCAGACUUGACGAAGCUG
Outline: as §1

biotinyl-Met-oxazolone = assay: self-aminoacylation, catalytic enhancement (BMO) (fold over background); higher = more active; k-Seq, kA / k0A0; sequences stand for … in GGGAAUGGAUCCACAUCUACGAAUUC…UUCACUGCAGACUUGACGAAGCUG
Outline: as §1

biotinyl-Val-oxazolone = assay: self-aminoacylation, catalytic enhancement (BVO) (fold over background); higher = more active; k-Seq, kA / k0A0; sequences stand for … in GGGAAUGGAUCCACAUCUACGAAUUC…UUCACUGCAGACUUGACGAAGCUG
Outline: as §1

biotinyl-Trp-oxazolone = assay: self-aminoacylation, catalytic enhancement (BWO) (fold over background); higher = more active; k-Seq, kA / k0A0; sequences stand for … in GGGAAUGGAUCCACAUCUACGAAUUC…UUCACUGCAGACUUGACGAAGCUG
Outline: as §1

Row | Sequence | self-aminoacylation (biotinyl-Ile-oxazolone) | self-aminoacylation (biotinyl-Leu-oxazolone) | self-aminoacylation (biotinyl-Phe-oxazolone) | self-aminoacylation (biotinyl-Met-oxazolone) | self-aminoacylation (biotinyl-Val-oxazolone) | self-aminoacylation (biotinyl-Trp-oxazolone)
1 | AUUAACUUGGUCAUCGAGUGA [Fam2.1 aminoacylation ribozyme variant] | 2.9 | 4.16 | 3.99 | 3.67 | 2.48 | 4.83
2 | AUUACACUGGUCAUCGACUGA [Fam2.1 aminoacylation ribozyme variant] | 1 | 0.807 | 1.11 | 0.596 | 0.965 | 0.546
3 | AUUACACUGGUCAUCGAGUGG [Fam2.1 aminoacylation ribozyme variant] | 1.3 | 1.72 | 1.26 | 1.89 | 1.16 | 1.2
4 | AUUACCCAGGUCAUCGAGUCA [Fam2.1 aminoacylation ribozyme variant] | 0.823 | 0.858 | 0.818 | 0.771 | 1.02 | 0.484
5 | AUUACCCCGGUCAUCGACUGA [Fam2.1 aminoacylation ribozyme variant] | 1.01 | 0.802 | 0.534 | 0.625 | 1.11 | 0.385
6 | AUUACCCCGGUCAUCGAGCGA [Fam2.1 aminoacylation ribozyme variant] | 1.32 | 1.17 | 1.22 | 1.61 | 1.71 | 1.45
7 | AUUACCCCGGUCAUCGAGUGU [Fam2.1 aminoacylation ribozyme variant] | 1.56 | 2.45 | 9.98 | 2.58 | 1.87 | 3.57
8 | AUUACCCGGGUCAGCGAGUGA [Fam2.1 aminoacylation ribozyme variant] | 5.75 | 7.97 | 55.5 | 8.03 | 5.24 | 10.2
9 | AUUACCCGGGUCAUCGUGUGA [Fam2.1 aminoacylation ribozyme variant] | 2.6 | 5.65 | 39 | 4.88 | 3.17 | 5.65
10 | AUUACCCUAGUCAUCGAUUGA [Fam2.1 aminoacylation ribozyme variant] | 0.749 | 0.59 | 0.688 | 0.741 | 0.808 | 0.993
11 | AUUACCCUAGUCAUUGAGUGA [Fam2.1 aminoacylation ribozyme variant] | 3.69 | 6.93 | 25.9 | 6.69 | 3.86 | 9.31
12 | AUUACCCUCGUCAUCGAGCGA [Fam2.1 aminoacylation ribozyme variant] | 1.29 | 1.51 | 0.457 | 1.41 | 1.12 | 0.625
13 | AUUACCCUCGUCAUCGAGGGA [Fam2.1 aminoacylation ribozyme variant] | 1.34 | 1.64 | 1.45 | 1.37 | 1.14 | 1.22
14 | AUUACCCUCGUCAUCGAGUCA [Fam2.1 aminoacylation ribozyme variant] | 0.848 | 1.04 | 0.755 | 0.71 | 0.813 | 0.514
15 | AUUACCCUCGUCAUCGAUUGA [Fam2.1 aminoacylation ribozyme variant] | 0.735 | 0.671 | 0.539 | 0.788 | 0.779 | 0.823
16 | AUUACCCUGCUCAUCGAGUAA [Fam2.1 aminoacylation ribozyme variant] | 0.982 | 0.928 | 0.718 | 0.79 | 0.855 | 0.349
17 | AUUACCCUGGACAUCGAGUGG [Fam2.1 aminoacylation ribozyme variant] | 1.06 | 1.79 | 1.73 | 1.53 | 1.26 | 1.82
18 | AUUACCCUGGCCAUCGAGUGC [Fam2.1 aminoacylation ribozyme variant] | 0.727 | 0.769 | 1.01 | 1.36 | 0.908 | 1.32
19 | AUUACCCUGGCCAUCGUGUGA [Fam2.1 aminoacylation ribozyme variant] | 1.25 | 1.63 | 6.7 | 1.76 | 1.01 | 1.8
20 | AUUACCCUGGGAAUCGAGUGA [Fam2.1 aminoacylation ribozyme variant] | 2.78 | 5.93 | 26.8 | 5.72 | 3.29 | 4.59
21 | AUUACCCUGGUAAUCGACUGA [Fam2.1 aminoacylation ribozyme variant] | 0.689 | 0.539 | 0.42 | 0.475 | 0.823 | 0.623
22 | AUUACCCUGGUAAUCGAGUAA [Fam2.1 aminoacylation ribozyme variant] | 1.39 | 1.14 | 0.906 | 1.32 | 1.43 | 0.945
23 | AUUACCCUGGUAAUCGAUUGA [Fam2.1 aminoacylation ribozyme variant] | 0.711 | 0.748 | 0.956 | 0.791 | 0.777 | 0.469
